According to the supplement of paper PMC10849652:
This is one part of the list.

By UniProt entry, the sequences of proteins in these tests, tags left out. Where a name states a change or a piece, a line headed by the entry shows the natural chain unless it says otherwise.
UniProt O95396: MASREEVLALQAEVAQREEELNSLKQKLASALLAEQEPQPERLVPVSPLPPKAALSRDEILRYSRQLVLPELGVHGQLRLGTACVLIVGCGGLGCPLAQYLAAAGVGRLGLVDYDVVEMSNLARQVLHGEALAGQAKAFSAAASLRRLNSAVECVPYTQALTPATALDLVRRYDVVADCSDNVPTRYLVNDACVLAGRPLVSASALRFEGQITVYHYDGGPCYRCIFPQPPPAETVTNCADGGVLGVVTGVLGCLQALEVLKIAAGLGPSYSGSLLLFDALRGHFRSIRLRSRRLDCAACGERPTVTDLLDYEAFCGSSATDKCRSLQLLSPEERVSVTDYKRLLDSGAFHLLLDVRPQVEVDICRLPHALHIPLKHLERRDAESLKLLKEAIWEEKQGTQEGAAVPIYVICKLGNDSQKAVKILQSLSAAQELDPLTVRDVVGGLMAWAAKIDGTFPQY
UniProt O75352: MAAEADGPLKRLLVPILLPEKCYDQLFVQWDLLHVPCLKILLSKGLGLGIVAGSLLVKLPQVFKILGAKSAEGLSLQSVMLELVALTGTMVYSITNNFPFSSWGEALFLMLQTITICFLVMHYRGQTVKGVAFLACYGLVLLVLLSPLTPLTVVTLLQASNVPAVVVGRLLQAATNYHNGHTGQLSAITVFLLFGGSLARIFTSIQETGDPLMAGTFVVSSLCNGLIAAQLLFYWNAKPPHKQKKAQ
UniProt P39210: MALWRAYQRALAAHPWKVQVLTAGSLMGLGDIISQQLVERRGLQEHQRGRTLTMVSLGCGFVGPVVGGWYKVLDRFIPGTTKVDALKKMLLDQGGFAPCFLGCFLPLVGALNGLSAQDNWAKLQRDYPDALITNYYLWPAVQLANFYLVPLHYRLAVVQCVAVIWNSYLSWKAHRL
UniProt Q9NYP9: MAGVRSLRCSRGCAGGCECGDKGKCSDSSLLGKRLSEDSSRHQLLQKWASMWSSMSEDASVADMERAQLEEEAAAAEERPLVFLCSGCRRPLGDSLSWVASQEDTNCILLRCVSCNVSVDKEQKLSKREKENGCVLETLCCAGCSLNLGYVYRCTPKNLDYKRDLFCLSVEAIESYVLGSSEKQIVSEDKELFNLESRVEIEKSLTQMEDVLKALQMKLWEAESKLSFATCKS
UniProt Q6WCQ1: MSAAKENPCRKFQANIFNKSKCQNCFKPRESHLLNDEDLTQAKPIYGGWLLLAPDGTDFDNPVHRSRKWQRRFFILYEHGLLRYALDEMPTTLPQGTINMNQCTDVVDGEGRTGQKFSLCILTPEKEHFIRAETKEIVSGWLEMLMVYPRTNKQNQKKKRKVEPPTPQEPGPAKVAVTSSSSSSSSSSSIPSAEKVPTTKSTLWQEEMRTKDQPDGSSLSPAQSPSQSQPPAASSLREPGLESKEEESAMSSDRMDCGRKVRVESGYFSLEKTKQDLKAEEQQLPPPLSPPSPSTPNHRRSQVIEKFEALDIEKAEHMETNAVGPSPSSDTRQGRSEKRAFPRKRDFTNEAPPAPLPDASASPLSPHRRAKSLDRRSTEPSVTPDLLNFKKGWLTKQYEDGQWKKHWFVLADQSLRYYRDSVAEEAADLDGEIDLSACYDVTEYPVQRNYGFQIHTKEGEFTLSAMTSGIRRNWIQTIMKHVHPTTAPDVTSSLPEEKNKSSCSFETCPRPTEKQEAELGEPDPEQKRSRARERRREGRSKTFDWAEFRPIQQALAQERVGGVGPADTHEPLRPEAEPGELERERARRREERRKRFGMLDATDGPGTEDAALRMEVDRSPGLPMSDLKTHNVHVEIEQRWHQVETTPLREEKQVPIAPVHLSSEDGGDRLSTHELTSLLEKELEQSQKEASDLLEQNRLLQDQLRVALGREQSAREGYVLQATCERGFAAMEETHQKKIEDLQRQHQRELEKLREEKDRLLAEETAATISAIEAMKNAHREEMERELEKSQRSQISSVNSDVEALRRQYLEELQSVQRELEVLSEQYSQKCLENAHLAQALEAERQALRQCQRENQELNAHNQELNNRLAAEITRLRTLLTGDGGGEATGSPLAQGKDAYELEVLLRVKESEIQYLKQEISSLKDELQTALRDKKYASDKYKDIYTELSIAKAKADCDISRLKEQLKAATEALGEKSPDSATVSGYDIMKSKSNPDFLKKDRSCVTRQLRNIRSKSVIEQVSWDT
UniProt Q8IYU8: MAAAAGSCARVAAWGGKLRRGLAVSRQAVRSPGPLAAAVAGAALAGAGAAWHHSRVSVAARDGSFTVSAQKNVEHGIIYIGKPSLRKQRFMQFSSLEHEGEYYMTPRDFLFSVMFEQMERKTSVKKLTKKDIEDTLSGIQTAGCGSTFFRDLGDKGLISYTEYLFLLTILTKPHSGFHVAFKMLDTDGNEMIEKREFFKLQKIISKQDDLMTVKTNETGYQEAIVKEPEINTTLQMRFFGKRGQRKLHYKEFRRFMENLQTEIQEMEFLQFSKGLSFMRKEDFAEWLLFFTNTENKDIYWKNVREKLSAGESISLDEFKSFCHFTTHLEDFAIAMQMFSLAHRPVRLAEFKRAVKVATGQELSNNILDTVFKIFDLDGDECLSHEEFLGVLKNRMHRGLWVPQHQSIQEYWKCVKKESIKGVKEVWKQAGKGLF
UniProt Q8N108: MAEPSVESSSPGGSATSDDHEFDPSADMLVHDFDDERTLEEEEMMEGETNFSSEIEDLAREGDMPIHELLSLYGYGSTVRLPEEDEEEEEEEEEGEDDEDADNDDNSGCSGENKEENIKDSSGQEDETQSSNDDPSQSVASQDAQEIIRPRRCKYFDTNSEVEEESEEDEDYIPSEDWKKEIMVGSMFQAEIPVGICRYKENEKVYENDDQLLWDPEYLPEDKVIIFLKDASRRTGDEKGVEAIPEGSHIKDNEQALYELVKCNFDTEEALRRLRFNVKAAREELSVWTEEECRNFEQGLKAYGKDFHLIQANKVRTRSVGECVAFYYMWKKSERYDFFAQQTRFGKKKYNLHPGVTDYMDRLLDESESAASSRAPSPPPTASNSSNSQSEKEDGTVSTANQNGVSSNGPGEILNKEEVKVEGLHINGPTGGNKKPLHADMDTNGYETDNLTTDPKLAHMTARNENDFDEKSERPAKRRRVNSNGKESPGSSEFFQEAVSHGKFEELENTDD
UniProt Q9H000: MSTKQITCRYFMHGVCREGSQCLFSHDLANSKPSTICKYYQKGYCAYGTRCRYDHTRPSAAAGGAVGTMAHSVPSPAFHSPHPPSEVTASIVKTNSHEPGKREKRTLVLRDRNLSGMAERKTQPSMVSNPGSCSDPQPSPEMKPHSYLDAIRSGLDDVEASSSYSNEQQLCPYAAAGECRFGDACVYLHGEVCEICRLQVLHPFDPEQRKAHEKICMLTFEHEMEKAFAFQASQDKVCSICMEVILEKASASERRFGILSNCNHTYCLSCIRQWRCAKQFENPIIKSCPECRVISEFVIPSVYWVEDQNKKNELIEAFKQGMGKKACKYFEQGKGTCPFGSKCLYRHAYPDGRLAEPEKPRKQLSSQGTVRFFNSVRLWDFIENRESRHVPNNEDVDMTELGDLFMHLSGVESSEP
UniProt Q9BRT3: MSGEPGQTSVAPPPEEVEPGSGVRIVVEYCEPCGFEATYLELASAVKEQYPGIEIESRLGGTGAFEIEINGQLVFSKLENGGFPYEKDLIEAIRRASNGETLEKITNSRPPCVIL
UniProt Q7Z3U7: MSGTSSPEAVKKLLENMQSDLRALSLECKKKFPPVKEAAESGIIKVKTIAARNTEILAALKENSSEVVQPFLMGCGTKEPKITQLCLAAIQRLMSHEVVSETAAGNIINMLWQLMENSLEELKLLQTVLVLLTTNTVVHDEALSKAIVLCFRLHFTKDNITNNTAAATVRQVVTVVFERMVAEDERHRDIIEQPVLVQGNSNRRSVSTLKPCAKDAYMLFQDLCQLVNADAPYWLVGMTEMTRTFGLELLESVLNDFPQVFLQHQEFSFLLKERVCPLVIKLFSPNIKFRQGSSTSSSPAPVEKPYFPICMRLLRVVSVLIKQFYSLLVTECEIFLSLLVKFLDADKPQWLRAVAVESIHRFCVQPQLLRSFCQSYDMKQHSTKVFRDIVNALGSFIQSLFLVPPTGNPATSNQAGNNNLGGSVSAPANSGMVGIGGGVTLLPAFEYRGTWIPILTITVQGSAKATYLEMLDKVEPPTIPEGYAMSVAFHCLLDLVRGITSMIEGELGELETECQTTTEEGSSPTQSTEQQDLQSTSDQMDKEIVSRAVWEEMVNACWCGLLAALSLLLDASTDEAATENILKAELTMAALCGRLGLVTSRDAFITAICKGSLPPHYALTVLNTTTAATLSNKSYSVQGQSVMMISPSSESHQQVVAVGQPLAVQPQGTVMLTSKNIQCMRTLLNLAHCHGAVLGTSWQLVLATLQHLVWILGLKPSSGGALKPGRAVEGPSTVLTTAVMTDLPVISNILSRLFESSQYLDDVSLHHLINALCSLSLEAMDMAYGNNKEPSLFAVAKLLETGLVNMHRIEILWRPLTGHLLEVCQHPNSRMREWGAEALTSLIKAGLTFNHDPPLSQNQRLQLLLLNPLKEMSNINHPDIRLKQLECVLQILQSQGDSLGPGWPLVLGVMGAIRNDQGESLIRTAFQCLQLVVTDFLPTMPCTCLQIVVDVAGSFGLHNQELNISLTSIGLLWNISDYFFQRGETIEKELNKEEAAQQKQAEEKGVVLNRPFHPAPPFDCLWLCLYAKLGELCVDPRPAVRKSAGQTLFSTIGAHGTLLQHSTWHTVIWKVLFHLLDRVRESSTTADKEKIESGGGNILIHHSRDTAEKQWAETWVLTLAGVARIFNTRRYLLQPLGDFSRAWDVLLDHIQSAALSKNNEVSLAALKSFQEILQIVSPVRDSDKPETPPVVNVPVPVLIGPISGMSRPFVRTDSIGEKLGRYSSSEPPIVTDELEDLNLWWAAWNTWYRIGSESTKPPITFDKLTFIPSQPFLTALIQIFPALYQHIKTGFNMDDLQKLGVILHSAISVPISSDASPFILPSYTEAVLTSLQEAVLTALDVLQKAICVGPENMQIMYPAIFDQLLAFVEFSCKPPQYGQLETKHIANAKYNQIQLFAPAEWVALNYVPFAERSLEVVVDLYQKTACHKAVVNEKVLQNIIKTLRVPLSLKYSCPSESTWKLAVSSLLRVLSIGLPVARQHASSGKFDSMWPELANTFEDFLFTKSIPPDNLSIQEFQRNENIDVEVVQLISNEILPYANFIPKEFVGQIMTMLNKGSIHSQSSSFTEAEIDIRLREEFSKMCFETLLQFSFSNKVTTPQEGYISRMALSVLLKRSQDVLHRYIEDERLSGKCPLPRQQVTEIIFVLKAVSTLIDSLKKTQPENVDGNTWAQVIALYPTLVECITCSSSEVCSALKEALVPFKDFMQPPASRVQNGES
UniProt Q8WV92, whole entry, looked up: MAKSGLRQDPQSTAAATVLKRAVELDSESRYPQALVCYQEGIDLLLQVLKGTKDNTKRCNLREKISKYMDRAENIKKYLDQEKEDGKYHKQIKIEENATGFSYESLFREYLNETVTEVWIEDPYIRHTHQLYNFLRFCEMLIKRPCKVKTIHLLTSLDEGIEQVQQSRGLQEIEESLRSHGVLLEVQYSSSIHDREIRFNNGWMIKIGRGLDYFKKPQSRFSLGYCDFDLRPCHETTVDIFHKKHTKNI
UniProt Q9BVC4, whole entry, looked up: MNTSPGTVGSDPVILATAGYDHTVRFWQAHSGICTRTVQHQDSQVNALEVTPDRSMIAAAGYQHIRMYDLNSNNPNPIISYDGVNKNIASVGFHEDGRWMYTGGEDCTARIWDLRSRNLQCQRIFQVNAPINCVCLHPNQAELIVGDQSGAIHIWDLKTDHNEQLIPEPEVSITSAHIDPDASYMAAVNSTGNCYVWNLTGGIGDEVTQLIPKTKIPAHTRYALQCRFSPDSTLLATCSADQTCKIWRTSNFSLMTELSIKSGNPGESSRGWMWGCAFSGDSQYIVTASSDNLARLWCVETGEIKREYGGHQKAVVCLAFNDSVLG
UniProt P51948: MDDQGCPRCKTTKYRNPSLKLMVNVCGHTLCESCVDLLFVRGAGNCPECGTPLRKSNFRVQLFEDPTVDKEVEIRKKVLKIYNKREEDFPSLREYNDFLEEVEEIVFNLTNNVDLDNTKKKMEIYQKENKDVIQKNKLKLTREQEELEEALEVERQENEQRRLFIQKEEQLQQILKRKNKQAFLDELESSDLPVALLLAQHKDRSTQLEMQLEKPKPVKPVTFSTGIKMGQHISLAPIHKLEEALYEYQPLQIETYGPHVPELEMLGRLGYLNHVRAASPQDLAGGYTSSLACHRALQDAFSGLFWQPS
UniProt Q15014, whole entry, looked up: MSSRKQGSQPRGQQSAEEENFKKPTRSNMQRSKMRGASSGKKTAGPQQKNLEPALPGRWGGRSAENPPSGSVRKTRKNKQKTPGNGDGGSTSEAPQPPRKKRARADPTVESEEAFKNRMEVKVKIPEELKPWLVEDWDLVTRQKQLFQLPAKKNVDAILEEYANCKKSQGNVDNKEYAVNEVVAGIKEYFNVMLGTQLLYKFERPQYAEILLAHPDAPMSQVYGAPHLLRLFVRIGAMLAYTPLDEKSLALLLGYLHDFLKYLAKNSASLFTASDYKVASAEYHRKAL

Compound: CC1=C(C(CC(=O)N1)C2=CC=C(C=C2)C(F)(F)F)C(=O)NC3=C(C=C4C(=C3)C=NN4)F
Assay: log2 fold change, soluble protein after heating vs DMSO (PISA); higher = thermal stabilisation; K562 cells, 10 uM, 30 min; active = over 0.2 and 3.5 SD of the protein, either way, in both replicates (recomputed)
Outline: (§1)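 Thermal stability values are relative to control samples and come from duplicates. They are expressed as log2 fold changes. For measurement, K562 cells (2×10^6 cells/mL) received 10 μM compound for 30 min, and aliquots were heated for 3 min over 48°C-58°C, pooled, and extracted at 4°C in PBS with 0.5% NP-40. Soluble protein, the supernatant after 21,000xg for 90 min, was quantified by TMTpro 16plex LC-MS/MS with equalised channel sums.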

Target	log2 fold change
MOCS3 (UniProt O95396)	inactive: -0.05
MPDU1 (UniProt O75352)	inactive: -0.006
MRPL55 isoform 2 (UniProt Q7Z7F7)	inactive: -0.061
MRPL39 (UniProt Q9NYK5)	inactive: 0.013
MPV17 (UniProt P39210)	inactive: -0.009
MIS18A (UniProt Q9NYP9)	inactive: 0.051
MRPL57 (UniProt Q9BQC6)	inactive: -0.028
MPRIP isoform 2 (UniProt Q6WCQ1)	inactive: -0.04
MICAL3 (UniProt Q7RTP6)	inactive: 0.037

Compound: CC1=C(C2=C(C=C1)C(=O)C3=CC=CC=C3N2CCCN)C
Assay: as above
Outline: as §1

Target	log2 fold change
MPP1 (UniProt Q00013)	inactive: 0.029
MICU2 (UniProt Q8IYU8)	inactive: 0.136
MICOS13 (UniProt Q5XKP0)	inactive: -0.008
MIER1 isoform 12 (UniProt Q8N108)	inactive: -0.122
MPHOSPH10 (UniProt O00566)	inactive: -0.56
MOCS3 (UniProt O95396)	inactive: -0.117
MINK1 (UniProt Q8N4C8)	inactive: 0.061
MIF (UniProt P14174)	inactive: 0.133
MPDU1 (UniProt O75352)	inactive: 0.164
MORC3 (UniProt Q14149)	active: 0.595
MKRN2 (UniProt Q9H000)	inactive: -0.064
MRPL46 (UniProt Q9H2W6)	inactive: -0.026
MIEN1 (UniProt Q9BRT3)	inactive: 0.045
MRPL47 (UniProt Q9HD33)	inactive: -0.083
MON2 isoform 5 (UniProt Q7Z3U7)	inactive: 0.055
MRPL34 (UniProt Q9BQ48)	active: -0.51
MRPL55 isoform 2 (UniProt Q7Z7F7)	inactive: -0.037
MLX (UniProt Q9UH92)	inactive: -0.008
MRPL39 (UniProt Q9NYK5)	inactive: -0.038

Target	log2 fold change
MRPL50 (UniProt Q8N5N7)	inactive: 0.16
MITD1 (UniProt Q8WV92)	inactive: 0.047
MIEF1 (UniProt Q9NQG6)	inactive: 0.112
MICU1 isoform 3 (UniProt Q9BPX6)	inactive: 0.09
MON1B (UniProt Q7L1V2)	inactive: 0
MPV17 (UniProt P39210)	inactive: 0.103
MIS12 (UniProt Q9H081)	inactive: -0.035
MND1 (UniProt Q9BWT6)	inactive: 0.043
MIS18A (UniProt Q9NYP9)	inactive: -0.016
MLST8 (UniProt Q9BVC4)	inactive: 0.037
MNAT1 (UniProt P51948)	inactive: -0.027
MORF4L2 (UniProt Q15014)	inactive: 0.005
MIEF1 (UniProt L0R8F8)	inactive: -0.004
MKNK1 (UniProt Q9BUB5)	inactive: 0.057
MOV10 (UniProt Q9HCE1)	inactive: -0.305
MRPL57 (UniProt Q9BQC6)	inactive: -0.112
MMS19 isoform 8 (UniProt Q96T76)	inactive: 0.011
MPRIP isoform 2 (UniProt Q6WCQ1)	inactive: 0.109
MICAL3 (UniProt Q7RTP6)	inactive: 0.043
